{"sequences": {"note": "The chains behind the UniProt entries cited, without tags or fusion partners. Where a name states a change or a piece, a line headed by the entry shows the natural chain unless it says otherwise.", "UniProt P14416, whole entry, looked up": "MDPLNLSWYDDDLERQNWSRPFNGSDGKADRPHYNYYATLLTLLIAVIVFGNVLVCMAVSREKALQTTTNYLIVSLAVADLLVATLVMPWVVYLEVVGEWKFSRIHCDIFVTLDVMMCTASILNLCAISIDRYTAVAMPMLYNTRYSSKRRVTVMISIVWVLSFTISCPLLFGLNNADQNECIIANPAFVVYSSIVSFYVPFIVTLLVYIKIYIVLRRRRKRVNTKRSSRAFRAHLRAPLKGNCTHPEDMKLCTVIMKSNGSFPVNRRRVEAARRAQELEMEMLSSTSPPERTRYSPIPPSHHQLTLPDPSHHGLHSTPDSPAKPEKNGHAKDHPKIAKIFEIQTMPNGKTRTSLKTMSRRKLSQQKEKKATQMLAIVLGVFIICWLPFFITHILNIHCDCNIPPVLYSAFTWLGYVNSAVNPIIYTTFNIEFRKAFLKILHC", "UniProt P28223, whole entry, looked up": "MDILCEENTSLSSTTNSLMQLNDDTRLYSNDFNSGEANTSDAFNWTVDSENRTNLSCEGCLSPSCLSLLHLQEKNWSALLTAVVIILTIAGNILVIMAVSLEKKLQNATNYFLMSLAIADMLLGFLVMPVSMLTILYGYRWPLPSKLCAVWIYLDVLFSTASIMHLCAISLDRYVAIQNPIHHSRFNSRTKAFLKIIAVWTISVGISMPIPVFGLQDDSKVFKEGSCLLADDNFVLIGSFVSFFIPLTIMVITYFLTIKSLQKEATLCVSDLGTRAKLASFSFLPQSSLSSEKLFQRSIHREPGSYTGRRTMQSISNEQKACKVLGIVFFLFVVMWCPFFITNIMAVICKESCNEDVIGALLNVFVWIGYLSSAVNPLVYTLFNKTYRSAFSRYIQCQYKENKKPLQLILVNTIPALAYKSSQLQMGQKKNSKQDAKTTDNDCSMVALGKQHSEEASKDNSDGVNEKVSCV", "UniProt P11229": "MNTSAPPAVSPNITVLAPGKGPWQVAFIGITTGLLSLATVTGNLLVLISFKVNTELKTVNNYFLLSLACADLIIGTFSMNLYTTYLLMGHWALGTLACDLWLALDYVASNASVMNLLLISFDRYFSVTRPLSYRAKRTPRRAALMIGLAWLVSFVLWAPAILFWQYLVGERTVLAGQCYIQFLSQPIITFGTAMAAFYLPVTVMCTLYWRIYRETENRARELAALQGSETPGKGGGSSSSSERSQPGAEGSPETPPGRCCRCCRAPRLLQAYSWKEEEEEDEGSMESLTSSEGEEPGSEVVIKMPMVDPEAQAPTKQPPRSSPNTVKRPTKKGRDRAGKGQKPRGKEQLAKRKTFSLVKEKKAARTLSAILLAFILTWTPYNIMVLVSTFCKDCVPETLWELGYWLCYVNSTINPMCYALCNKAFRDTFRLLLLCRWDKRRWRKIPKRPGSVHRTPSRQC"}, "source": "PubChem BioAssay (Tox21)", "key": {"[1]": {"test": "Nuclear factor erythroid 2-related factor 2/antioxidant responsive element (Nrf2/ARE) small molecule agonists: luciferase reporter gene qHTS assay in human keratinocytes (AID 1919969); further: nearly all actives have a fitted effect of over 35% in size; further: potency means the concentration at half of the fitted maximal effect; on activity, positive = activation: on the % scale 0 is the no-effect control and ±100 the full control effect", "conditions": "KeratinoSens HaCaT ARE-luciferase, luminescence, 24 h; activity, positive = activation: at 92.4 µM (top of the series)"}, "[2]": {"test": "p53 small molecule agonists, cell-based qHTS assay with human liver microsomes (AID 1963577); further: potency means the concentration at half of the fitted maximal effect; on activation: on the % scale 0 is the no-effect control and ±100 the full control effect", "conditions": "HCT-116 p53RE-bla with human liver microsomes, ratio, 16 h; activation: at 66 µM (top of the series) unless noted", "summary_of_the_method": "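Cells carrying a p53-responsive bla reporter were rested 5 h (37 C, 5% CO2) before compound transfer. Human liver microsomes plus NADPH, 0.5 mg/mL final apiece, supplied metabolism during the 16 h 37 C exposure.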"}, "[3]": {"test": "p53 small molecule agonists, cell-based qHTS assay with human liver microsomes: qHTS cell viability counter screen (AID 1963579); further: potency means the concentration at half of the fitted maximal effect; nearly all actives have a fitted effect of over 45% in size", "conditions": "p53RE-bla HCT-116 viability, ATP luminescence, 16 h, HLM; series mostly up to 66 µM", "summary_of_the_method": "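Seed p53RE-bla cells at 4,000 per well; incubate 5 h at 37 C; add compound, human liver microsomes and NADPH; incubate 16 h at 37 C; add CellTiter-Glo; after 30 min at room temperature, read luminescence.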"}, "[4]": {"test": "p53 small molecule agonists, cell-based qHTS assay with rat liver microsomes: qHTS cell viability counter screen (AID 1963580); further: potency means the concentration at half of the fitted maximal effect; nearly all actives have a fitted effect of over 45% in size", "conditions": "p53RE-bla HCT-116 + rat microsomes, ATP viability, 16 h; series mostly up to 66 µM", "summary_of_the_method": "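Viability is assessed in parallel with the p53 reporter read: HCT-116 p53RE-bla cells receive compounds plus rat microsomes and NADPH (0.5 mg/mL final apiece), incubate 16 h at 37 C, and then CellTiter-Glo luminescence is recorded.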"}, "[5]": {"test": "p53 small molecule agonists, cell-based qHTS assay: qHTS cell viability counter screen (AID 1963581); further: potency means the concentration at half of the fitted maximal effect; nearly all actives have a fitted effect of over 45% in size", "conditions": "p53RE-bla HCT-116 viability, ATP luminescence, 16 h; series mostly up to 66 µM", "summary_of_the_method": "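p53RE-bla HCT-116 cells were exposed to compounds for 16 h at 37 C; after the beta-lactamase FRET read in the same wells, CellTiter-Glo was added and luminescence (intracellular ATP) read after 30 min at room temperature.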"}, "[6]": {"test": "p53 small molecule agonists, cell-based qHTS assay (AID 1963582; active means well fitted activation curve with a large enough effect in the signal ratio in the repeat runs, not every such curve was filed as active; inconclusive means weak or mixed curves; the % refers to the signal ratio; further: potency means the concentration at half of the fitted maximal effect)", "conditions": "HCT-116 p53RE-bla reporter, beta-lactamase FRET ratio, 16 h; activation: at 66 µM (top of the series) unless noted", "summary_of_the_method": "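p53RE-bla beta-lactamase reporter cells rested 5 h at 37 C/5% CO2, then received compounds in DMSO by pin transfer and were incubated 16 h at 37 C. LiveBLAzer B/G FRET substrate was loaded for 2 h at room temperature before fluorescence reading.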"}, "[7]": {"test": "cAMP Responsive Elements (CRE) small molecule antagonists, cell-based qHTS assay (AID 1963591; active means well fitted inhibition curve with a large enough effect in the signal ratio in the repeat runs, not every such curve was filed as active; inconclusive means weak or mixed curves, or effect the other way; the % refers to the signal ratio; further: potency means the concentration at half of the fitted maximal effect)", "conditions": "CRE-bla HEK293T, beta-lactamase FRET ratio; activity change, negative = inhibition: at 92.4 µM (top of the series) unless noted", "summary_of_the_method": "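CRE-bla HEK293T cells were plated 18 h at 37 °C/5% CO2, pinned with compound in DMSO, then stimulated with NKH477 at 0.25 uM final for 3 h. LiveBLAzer B/G FRET substrate was added and plates incubated 2 h at room temperature.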"}, "[8]": {"molecular_target": "Beta-2 adrenergic receptor (Homo sapiens) (UniProt P07550)", "test": "Adrenergic beta2 receptor (ADRB2) small molecule agonists, cell-based qHTS assay (AID 1963593); further: on the % scale 0 is the no-effect control and ±100 the full control effect", "conditions": "CHO-ADRB2 cells, cAMP HTRF, 30 min; activation: at 92.4 µM (top of the series) unless noted", "summary_of_the_method": "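CHO cells stably over-expressing ADRB2 were plated overnight at 37C, then dosed with compounds plus a stimulation mix containing 100uM IBMX and 25uM Ro-20-1724 for 0.5hr at room temperature. cAMP was measured by HTRF competition, 1hr.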"}, "[9]": {"molecular_target": "D(2) dopamine receptor (Homo sapiens) (UniProt P14416)", "test": "Dopamine D2 receptor (DRD2) small molecule antagonists, cell-based qHTS assay (AID 1963595; active means well fitted inhibition curve with a large enough effect in the signal ratio in the repeat runs, with a control signal flat; inconclusive means weak or mixed curves, or effect the other way; the % refers to the signal ratio; further: potency means the concentration at half of the fitted maximal effect; on activity change, negative = inhibition: on the % scale 0 is the no-effect control and ±100 the full control effect)", "conditions": "HEK293-DRD2 cAMP HTRF antagonist mode; activity change, negative = inhibition: at 92.4 µM (top of the series) unless noted", "summary_of_the_method": "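Readout: HTRF cAMP, cAMP-d2 competing with cellular cAMP for anti-cAMP cryptate, read after 1 h. Cells: DRD2-HEK293. Conditions: 0.1 mM Ro20-1724, 12 nM quinpirole, 200 nM NKH477, 30 min RT.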"}, "[10]": {"molecular_target": "5-hydroxytryptamine receptor 2A (Homo sapiens) (UniProt P28223)", "test": "5-hydroxytryptamine receptor 2A (HTR2A) small molecule antagonists, cell-based qHTS assay (AID 1963586); further: nearly all actives have a fitted effect of over 45% in size; further: potency means the concentration at half of the fitted maximal effect", "conditions": "HTR2A-CHO cells, DOI-induced calcium flux, fluorescence; series mostly up to 61.5 µM", "summary_of_the_method": "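Antagonist-mode intracellular calcium assay: DOI (4 nM) added after 5 min compound pre-incubation at room temperature to dye-loaded HTR2A-CHO cells. Fluorescence followed for 3 min, sampled every second.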"}, "[11]": {"test": "cAMP Responsive Elements (CRE) small molecule agonists, cell-based qHTS assay (AID 1963590); further: potency means the concentration at half of the fitted maximal effect", "conditions": "CRE-bla HEK293T, beta-lactamase FRET ratio, 3 h; activation: at 92.4 µM (top of the series) unless noted", "summary_of_the_method": "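CRE-bla HEK 293T cells in DMEM with 10% dialyzed FBS, NEAA, pyruvate and 25 mM HEPES were plated 18 h at 37 C/5% CO2, then exposed to compounds in DMSO for 3 h before LiveBLAzer B/G FRET substrate addition.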"}, "[12]": {"molecular_target": "D(2) dopamine receptor (Homo sapiens) (UniProt P14416)", "test": "Dopamine D2 receptor (DRD2) small molecule agonists, cell-based qHTS assay (AID 1963594); further: on the % scale 0 is the no-effect control and ±100 the full control effect; nearly all actives have a fitted effect of over 35% in size", "conditions": "HEK293-DRD2 cAMP HTRF, agonist mode, 30 min; activation: at 92.4 µM (top of the series) unless noted", "summary_of_the_method": "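HEK293 cells stably expressing human DRD2, pre-treated with PDE inhibitor Ro20-1724 (0.1 mM final) and compound 10 min at room temperature, then stimulated with NKH477 (200nM […]) for 30 min. cAMP read by HTRF (665/620 nm).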"}, "[13]": {"molecular_target": "5-hydroxytryptamine receptor 2A (Homo sapiens) (UniProt P28223)", "test": "5-hydroxytryptamine receptor 2A (HTR2A) small molecule agonists, cell-based qHTS assay (AID 1963587); further: potency means the concentration at half of the fitted maximal effect; nearly all actives have a fitted effect of over 30% in size", "conditions": "HTR2A-CHO cells, calcium flux fluorescence, agonist mode; series mostly up to 76.8 µM", "summary_of_the_method": "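CHO cells stably expressing human HTR2A, plated 18 h, loaded with calcium dye 1 h at 37 C. Agonist mode: compounds added and intracellular calcium fluorescence recorded kinetically for 2 min at 1 sec intervals.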"}, "[14]": {"molecular_target": "Muscarinic acetylcholine receptor M1 (Homo sapiens) (UniProt P11229)", "test": "Cholinergic receptor muscarinic 1 (CHRM1) small molecule antagonists, cell-based qHTS assay (AID 1963588); further: potency means the concentration at half of the fitted maximal effect; nearly all actives have a fitted effect of over 40% in size", "conditions": "CHRM1-CHO antagonist mode, calcium flux fluorescence; series mostly up to 61.5 µM", "summary_of_the_method": "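CHRM1-CHO calcium-flux assay, antagonist mode. Cells were seeded 18 h, dye-loaded 1 h at 37 C and given compound for 5 min at RT, then acetylcholine was added at 50nM. FDSS fluorescence was read 3 min; 15 concentrations, three runs.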"}}, "note": "“And” between values parts separate entries of the source, which are not always exact repeats. Equal entries are not always repeated. Inconclusive results, whose numbers are uncertain, are shown with a selection of clear calls. For some of these results: Potencies of inconclusive entries are doubtful fits and often do not repeat. Some compounds were tested as several samples or in several runs, with calls that do not always agree. The source made the active and inactive calls. Unless noted, the call rests on the fitted dose curve."}
{"smiles": "CC1=CC(=O)c2ccccc2C1=O", "values": [{"measurement": "Potency", "setting": "[1]", "result": "inconclusive: 15.4 µM [activator] and active: 13.3 µM"}, {"measurement": "Potency", "setting": "[2]", "result": "inactive"}, {"measurement": "Potency", "setting": "[3]", "result": "inconclusive: 51.3 µM [cytotoxic, single point]"}, {"measurement": "Potency", "setting": "[4]", "result": "inconclusive: 51.3 µM [cytotoxic, single point]"}, {"measurement": "Potency", "setting": "[5]", "result": "active: 40.8 µM"}, {"measurement": "Potency", "setting": "[6]", "result": "inconclusive: 51.3 µM [activator]"}, {"measurement": "Potency", "setting": "[7]", "result": "inconclusive: 68.6 µM"}, {"measurement": "activation", "setting": "[8]", "result": "inconclusive: 21.3% [at 42.5 µM]"}, {"measurement": "activity change, negative = inhibition", "setting": "[9]", "result": "inconclusive: -27.2%"}]}
{"smiles": "O=C(O)CCCCCCC(=O)O", "values": [{"measurement": "Potency", "setting": "[1]", "result": "inactive"}, {"measurement": "Potency", "setting": "[2]", "result": "inactive"}, {"measurement": "Potency", "setting": "[6]", "result": "inconclusive: 0.164 µM [falling, single point]"}, {"measurement": "Potency", "setting": "[8]", "result": "inactive"}]}
{"smiles": "O=c1[nH]c2ccc(S(=O)CCN3CCC(Cc4ccc(F)cc4)CC3)cc2o1", "note": "(centres undefined)", "values": [{"measurement": "Potency", "setting": "[1]", "result": "active: 61.1 µM"}, {"measurement": "Potency", "setting": "[2]", "result": "inconclusive: 18.2 µM [rising, partial curve]"}, {"measurement": "Potency", "setting": "[3]", "result": "inconclusive: 1.82 µM [rising, single point]"}, {"measurement": "Potency", "setting": "[5]", "result": "inconclusive: 0.408 µM [cytotoxic, single point]"}, {"measurement": "Potency", "setting": "[10]", "result": "inactive"}, {"measurement": "Potency", "setting": "[11]", "result": "inconclusive: 27.3 µM [fluorescent, partial curve]"}, {"measurement": "Potency", "setting": "[7]", "result": "inconclusive: 13.7 µM [fluorescent, full curve]"}, {"measurement": "activation", "setting": "[12]", "result": "inconclusive: 13.1%"}, {"measurement": "activity change, negative = inhibition", "setting": "[9]", "result": "inconclusive: 3.3%"}]}
{"smiles": "CC1CN(c2ccccc2)NC1=O", "note": "(centres undefined)", "values": [{"measurement": "Potency", "setting": "[1]", "result": "inconclusive: 68.6 µM [activator, single point]"}, {"measurement": "Potency", "setting": "[2]", "result": "inactive"}, {"measurement": "Potency", "setting": "[6]", "result": "inactive"}, {"measurement": "Potency", "setting": "[9]", "result": "inconclusive: 77 µM [inhibitor, partial curve, poor fit]"}]}
{"smiles": "CCN(CC)CCOC(=O)C(c1ccccc1)C1CCCCC1", "note": "(centres undefined)", "values": [{"measurement": "Potency", "setting": "[1]", "result": "inconclusive: 33.5 µM [activator]"}, {"measurement": "Potency", "setting": "[2]", "result": "inactive"}, {"measurement": "Potency", "setting": "[6]", "result": "inconclusive: 6.3 µM [rising, full curve]"}, {"measurement": "Potency", "setting": "[10]", "result": "inconclusive: 6.5 µM [inhibitor]"}, {"measurement": "Potency", "setting": "[13]", "result": "inconclusive: 23.9 µM [activator, single point]"}, {"measurement": "Potency", "setting": "[14]", "result": "active: 0.041 µM"}, {"measurement": "Potency", "setting": "[11]", "result": "inconclusive: 26.6 µM [rising, partial curve]"}, {"measurement": "activity change, negative = inhibition", "setting": "[9]", "result": "inconclusive: -28.6% [at 42.5 µM]"}]}
